{"source": "patent US20050049242A1", "about": "(priority 2000, published 2005)", "origin": "cited, not measured here", "settings": "cited from earlier work", "note": "At least one compound was matched to its structure with a doubt left.", "data": [{"smiles": "CS(=O)(=O)O.Cc1c(O)cccc1C(=O)N[C@@H](CSc1ccccc1)[C@H](O)CN1C[C@H]2CCS[C@H]2C[C@H]1C(=O)NC(C)(C)C", "note": "[AG1350]", "values": [{"measurement": "less active than Viracept", "result": "less than 10 fold"}]}]}
